Test results published in patent US12318484B2 (priority 2016, dated 2025).
At least one compound was matched to its structure with a doubt left.

Tested on: IL-1B, IL-8, TLR7 and TLR8 mRNA
Format: cell-based, ferrets
Details: 100 μM, ferret whole blood

## CCOCc1nc2c(N)nc3ccccc3c2n1CC(C)(C)O [R848, resiquimod]
  IL-1B, IL-8, TLR7 and TLR8 mRNA: significant increases
